Measurements from US20110300157A1 (DYAX, published 2011).
Substitutions are numbered along the chain they refer to. Results are given in words; binding and its absence hold for the method and conditions named. Some entries that bind do so weakly or less than the wild type.

Amino acid sequences for entries named in this document (tags omitted). Residues count along the entry.
UniProt P41245, residues 108-730: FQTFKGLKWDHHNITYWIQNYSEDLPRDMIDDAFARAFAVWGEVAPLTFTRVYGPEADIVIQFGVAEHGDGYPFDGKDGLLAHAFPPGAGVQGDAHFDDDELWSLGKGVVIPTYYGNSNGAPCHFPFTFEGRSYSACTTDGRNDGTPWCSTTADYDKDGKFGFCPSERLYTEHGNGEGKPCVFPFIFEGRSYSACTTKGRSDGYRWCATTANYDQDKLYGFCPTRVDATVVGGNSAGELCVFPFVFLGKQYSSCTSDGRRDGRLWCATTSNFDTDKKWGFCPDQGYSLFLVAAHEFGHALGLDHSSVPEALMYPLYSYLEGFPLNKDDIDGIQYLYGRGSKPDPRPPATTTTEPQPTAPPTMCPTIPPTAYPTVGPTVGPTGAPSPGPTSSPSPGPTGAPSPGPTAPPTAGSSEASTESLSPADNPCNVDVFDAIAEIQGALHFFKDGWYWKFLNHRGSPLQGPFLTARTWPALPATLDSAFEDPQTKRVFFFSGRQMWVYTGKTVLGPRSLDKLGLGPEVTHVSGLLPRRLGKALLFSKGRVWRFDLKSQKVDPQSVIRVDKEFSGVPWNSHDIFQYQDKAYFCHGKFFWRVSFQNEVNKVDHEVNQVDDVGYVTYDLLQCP
UniProt P14780, residues 107-444: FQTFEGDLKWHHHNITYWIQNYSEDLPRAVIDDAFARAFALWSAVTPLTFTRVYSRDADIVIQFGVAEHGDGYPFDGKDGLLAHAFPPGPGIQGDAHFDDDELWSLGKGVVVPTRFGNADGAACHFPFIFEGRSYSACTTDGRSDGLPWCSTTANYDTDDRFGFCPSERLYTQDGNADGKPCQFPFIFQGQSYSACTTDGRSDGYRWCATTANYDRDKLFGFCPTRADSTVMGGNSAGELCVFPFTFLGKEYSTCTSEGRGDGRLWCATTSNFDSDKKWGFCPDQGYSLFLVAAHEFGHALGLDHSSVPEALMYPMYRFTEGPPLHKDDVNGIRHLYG
UniProt P33434, residues 110-662: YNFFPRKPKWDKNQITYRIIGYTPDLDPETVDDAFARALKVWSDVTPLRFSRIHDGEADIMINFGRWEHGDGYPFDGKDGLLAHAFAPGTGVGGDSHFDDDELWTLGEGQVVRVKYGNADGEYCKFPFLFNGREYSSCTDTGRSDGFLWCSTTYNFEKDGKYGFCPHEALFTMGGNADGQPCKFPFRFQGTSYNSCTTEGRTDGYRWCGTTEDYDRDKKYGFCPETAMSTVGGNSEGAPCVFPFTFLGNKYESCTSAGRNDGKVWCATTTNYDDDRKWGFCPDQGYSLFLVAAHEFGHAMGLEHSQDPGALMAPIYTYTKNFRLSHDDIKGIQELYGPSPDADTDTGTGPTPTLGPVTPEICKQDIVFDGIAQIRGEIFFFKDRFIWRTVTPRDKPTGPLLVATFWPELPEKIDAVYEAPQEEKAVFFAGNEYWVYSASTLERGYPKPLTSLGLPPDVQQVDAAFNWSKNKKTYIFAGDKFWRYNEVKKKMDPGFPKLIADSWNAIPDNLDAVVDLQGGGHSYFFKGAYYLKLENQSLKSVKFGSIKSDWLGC
UniProt P08253, residues 110-660: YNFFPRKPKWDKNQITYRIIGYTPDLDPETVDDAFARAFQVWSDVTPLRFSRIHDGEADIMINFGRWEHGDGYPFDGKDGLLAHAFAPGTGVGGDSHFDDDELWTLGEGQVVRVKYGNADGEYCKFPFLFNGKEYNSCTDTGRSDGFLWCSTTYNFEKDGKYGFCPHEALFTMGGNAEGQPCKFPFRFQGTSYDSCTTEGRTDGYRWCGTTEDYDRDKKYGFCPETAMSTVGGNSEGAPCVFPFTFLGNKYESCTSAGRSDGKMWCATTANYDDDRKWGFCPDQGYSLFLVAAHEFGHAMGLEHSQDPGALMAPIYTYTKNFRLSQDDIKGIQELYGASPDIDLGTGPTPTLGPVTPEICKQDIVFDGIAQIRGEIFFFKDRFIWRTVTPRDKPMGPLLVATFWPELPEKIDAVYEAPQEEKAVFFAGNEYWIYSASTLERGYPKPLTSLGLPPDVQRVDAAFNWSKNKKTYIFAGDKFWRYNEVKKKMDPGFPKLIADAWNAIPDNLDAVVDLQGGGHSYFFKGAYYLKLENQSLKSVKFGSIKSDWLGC

B1: Fab M263-F01 (Fab, V domains shown)
VH: EVQLLESGGGLVQPGGSLRLSCAASGFTFSQYPMWWVRQAPGKGLEWVSYIVPSGGRTYYADSVKGRFTISRDNSKNTLYLQMNSLRAEDTAVYYCAKDRAYGDYVGWNGFDYWGQGTLVTVSS
VL: DIQMTQSPSSVSASVGDRVTITCRASQNIGRWLAWYQQKPGQAPNLLIYGASSLQTGVPSRFSGSGSGTDFSLTISSLQPEDFAVYYCQQRRKWPVTFGGGTKVEIK
B2: Fab M256-E03 (Fab, V domains shown)
VH: B1 VH with Q31T, W35I, V52S, R57Y, Y59G
VL: DIQMTQSPATLSLSPGERATLSCRASQSISSFLAWYQQKPGQAPRLLIYDASYRATGIPARFSGSGSGTDFTLTISSLEPEDYAVYYCQQRGNWPITFGQGTRLEIK
B3: Fab M266-E02 (Fab, V domains shown)
VH: B1 VH
VL: DIQMTQSPATLSLSPGETAILSCRASQSVGRFLAWYQQKPGQAPRLLIYGASSRATGIPDRFSGSGSGTDFSLTISRLEPEDFAVYYCQQRGNWPITFGQGTRLEIK
B4: Fab M256-A04 (Fab, V domains shown)
VH: B1 VH with Q31H, Y50S, V52S, R57A
VL: B2 VL
B5: Fab M263-F05 (Fab, V domains shown)
VH: B1 VH
VL: B3 VL with A9G, T18R, I20T, R31N, S53N, S72T, Y87F
B6: Fab M264-A09 (Fab, V domains shown)
VH: B1 VH
VL: DIQMTQSPSSVSASTGDRVIISCRASQVIFSGLAWYQQKPGKAPKLLISAASNLQSGVPARFSGSGSGTYFTLTISSLQPEDFATYYCQQAQTFPFTFGPGTKVDVQ
B7: Fab M256-D11 (Fab, V domains shown)
VH: B1 VH with Q31H, P33D, Y50V, V52Y, P53S, R57P, Y59F
VL: B2 VL
B8: Fab M266-D03 (Fab, V domains shown)
VH: B1 VH
VL: DIQMTQSPATLSVSPGERATLSCRASQNIGSDLAWYQHKPGQGPRLLIYGASSRATGIPDRFSGSGSGTDFTLTISSLEPEDFAVYFCQQRGNWPITFGQGTRLEIK
B9: Fab M256-E10 (Fab, V domains shown)
VH: B1 VH with Q31D, Y50V, V52Y, R57A, Y59F
VL: B2 VL
B10: Fab M256-D03 (Fab, V domains shown)
VH: B1 VH with Q31V, W35I, V52S, R57F, Y59G
VL: B2 VL
B11: Fab M265-C07 (Fab, V domains shown)
VH: B1 VH
VL: B3 VL with T18R, I20S, S28N, G30A, G50S, S53N, I58V, S72T, R77S, Y87F
B12: Fab M265-A07 (Fab, V domains shown)
VH: B1 VH
VL: DIQMTQSPATLSLSPGERATLSCRASQNVHTYLAWYQQKPGQAPRLLISEASNRATGVPARFTGSGSGIDFSLSISSLEPEDFAIYYCQQRGGWPITFGGGTKVEIK
B13: Fab M256-B03 (Fab, V domains shown)
VH: B1 VH with Q31R, V52S, R57F, Y59S
VL: B2 VL
B14: Fab M256-C09 (Fab, V domains shown)
VH: B1 VH with Q31K, V52S, P53S, R57G, Y59F
VL: B2 VL
B15: Fab M256-G09 (Fab, V domains shown)
VH: B1 VH with Q31K, Y50S, V52Y, R57A, Y59F
VL: B2 VL
B16: Fab M256-C07 (Fab, V domains shown)
VH: B1 VH with Q31L, P33D, V52S, P53S, R57A, Y59F
VL: B2 VL
B17: Fab M265-A04 (Fab, V domains shown)
VH: B1 VH
VL: DIQMTQSPVTLSVSPGERATLSCRASQNIGSDLAWYQQQPGQAPRLLIYRASFRATGIPARFSGSGSGTDFTLTISSLQSEDFAVYYCQQRGNWPPTFGGGTKVEIR
B18: Fab M256-A07 (Fab, V domains shown)
VH: B1 VH with Q31H, P33D, W35L, V52S, P53S, R57Y, Y59G
VL: B2 VL

The binders below were run against mMMP9 (mouse) (UniProt P41245) (assay: phage display selection, affinity maturation libraries).

binding, binds:
B1
B2
B3
B4
B5
B6
B7
B8
B9
B10

What follows are binders tested against hMMP9 (human) (UniProt P14780) in the same assay as above.

binding, binds:
B11
B1
B2
B12
B13
B3
B14
B4
B5
B15
B16
B17
B18
B6
B7
B8
B9
B10

What follows are binders tested against mMMP2 (mouse) (UniProt P33434) in the same assay as above.

binding, binds:
B1
B12
B3
B14
B4
B5
B6

The binders below were run against hMMP2 (human) (UniProt P08253) in the same assay as above.

binding, binds:
B11
B1
B2
B12
B13
B3
B14
B4
B5
B15
B16
B17
B18
B6
B7
B8
B9
B10
